Measured values reported in the supplement of paper PMC12067093, “Discovery and optimisation of a covalent ligand for TRIM25 and its application to targeted protein ubiquitination” (Chemical Science, 2025).
This is one part of the list.

Amino acid sequences for entries named in this document (tags omitted). A change or cut given only in a name is not applied to a line headed by its entry.
UniProt P63010: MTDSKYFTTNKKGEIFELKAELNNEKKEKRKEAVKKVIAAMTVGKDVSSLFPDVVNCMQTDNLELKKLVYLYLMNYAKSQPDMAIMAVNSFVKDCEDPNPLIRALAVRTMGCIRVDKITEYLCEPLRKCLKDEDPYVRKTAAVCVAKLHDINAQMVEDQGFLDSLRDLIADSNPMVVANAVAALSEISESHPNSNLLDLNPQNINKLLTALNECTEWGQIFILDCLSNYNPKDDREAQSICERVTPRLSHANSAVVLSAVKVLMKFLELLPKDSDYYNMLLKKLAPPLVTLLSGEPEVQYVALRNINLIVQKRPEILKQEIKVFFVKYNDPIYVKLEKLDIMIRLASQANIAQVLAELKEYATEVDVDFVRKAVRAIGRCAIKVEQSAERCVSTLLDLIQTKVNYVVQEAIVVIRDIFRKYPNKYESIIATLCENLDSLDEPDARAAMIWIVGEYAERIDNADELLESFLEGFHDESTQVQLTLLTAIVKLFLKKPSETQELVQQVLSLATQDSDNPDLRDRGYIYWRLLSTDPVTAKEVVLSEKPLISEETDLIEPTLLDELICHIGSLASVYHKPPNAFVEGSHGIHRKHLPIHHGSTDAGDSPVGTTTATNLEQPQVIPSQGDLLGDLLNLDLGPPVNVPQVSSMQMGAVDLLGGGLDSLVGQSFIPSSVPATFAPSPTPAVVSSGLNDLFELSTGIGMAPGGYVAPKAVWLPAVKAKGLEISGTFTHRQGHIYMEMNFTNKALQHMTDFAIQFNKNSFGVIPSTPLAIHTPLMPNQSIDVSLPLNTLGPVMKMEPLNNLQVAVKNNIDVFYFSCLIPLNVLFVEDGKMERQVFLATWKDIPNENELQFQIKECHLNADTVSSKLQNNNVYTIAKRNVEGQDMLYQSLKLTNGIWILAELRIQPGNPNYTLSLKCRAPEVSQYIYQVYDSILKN
UniProt O75179: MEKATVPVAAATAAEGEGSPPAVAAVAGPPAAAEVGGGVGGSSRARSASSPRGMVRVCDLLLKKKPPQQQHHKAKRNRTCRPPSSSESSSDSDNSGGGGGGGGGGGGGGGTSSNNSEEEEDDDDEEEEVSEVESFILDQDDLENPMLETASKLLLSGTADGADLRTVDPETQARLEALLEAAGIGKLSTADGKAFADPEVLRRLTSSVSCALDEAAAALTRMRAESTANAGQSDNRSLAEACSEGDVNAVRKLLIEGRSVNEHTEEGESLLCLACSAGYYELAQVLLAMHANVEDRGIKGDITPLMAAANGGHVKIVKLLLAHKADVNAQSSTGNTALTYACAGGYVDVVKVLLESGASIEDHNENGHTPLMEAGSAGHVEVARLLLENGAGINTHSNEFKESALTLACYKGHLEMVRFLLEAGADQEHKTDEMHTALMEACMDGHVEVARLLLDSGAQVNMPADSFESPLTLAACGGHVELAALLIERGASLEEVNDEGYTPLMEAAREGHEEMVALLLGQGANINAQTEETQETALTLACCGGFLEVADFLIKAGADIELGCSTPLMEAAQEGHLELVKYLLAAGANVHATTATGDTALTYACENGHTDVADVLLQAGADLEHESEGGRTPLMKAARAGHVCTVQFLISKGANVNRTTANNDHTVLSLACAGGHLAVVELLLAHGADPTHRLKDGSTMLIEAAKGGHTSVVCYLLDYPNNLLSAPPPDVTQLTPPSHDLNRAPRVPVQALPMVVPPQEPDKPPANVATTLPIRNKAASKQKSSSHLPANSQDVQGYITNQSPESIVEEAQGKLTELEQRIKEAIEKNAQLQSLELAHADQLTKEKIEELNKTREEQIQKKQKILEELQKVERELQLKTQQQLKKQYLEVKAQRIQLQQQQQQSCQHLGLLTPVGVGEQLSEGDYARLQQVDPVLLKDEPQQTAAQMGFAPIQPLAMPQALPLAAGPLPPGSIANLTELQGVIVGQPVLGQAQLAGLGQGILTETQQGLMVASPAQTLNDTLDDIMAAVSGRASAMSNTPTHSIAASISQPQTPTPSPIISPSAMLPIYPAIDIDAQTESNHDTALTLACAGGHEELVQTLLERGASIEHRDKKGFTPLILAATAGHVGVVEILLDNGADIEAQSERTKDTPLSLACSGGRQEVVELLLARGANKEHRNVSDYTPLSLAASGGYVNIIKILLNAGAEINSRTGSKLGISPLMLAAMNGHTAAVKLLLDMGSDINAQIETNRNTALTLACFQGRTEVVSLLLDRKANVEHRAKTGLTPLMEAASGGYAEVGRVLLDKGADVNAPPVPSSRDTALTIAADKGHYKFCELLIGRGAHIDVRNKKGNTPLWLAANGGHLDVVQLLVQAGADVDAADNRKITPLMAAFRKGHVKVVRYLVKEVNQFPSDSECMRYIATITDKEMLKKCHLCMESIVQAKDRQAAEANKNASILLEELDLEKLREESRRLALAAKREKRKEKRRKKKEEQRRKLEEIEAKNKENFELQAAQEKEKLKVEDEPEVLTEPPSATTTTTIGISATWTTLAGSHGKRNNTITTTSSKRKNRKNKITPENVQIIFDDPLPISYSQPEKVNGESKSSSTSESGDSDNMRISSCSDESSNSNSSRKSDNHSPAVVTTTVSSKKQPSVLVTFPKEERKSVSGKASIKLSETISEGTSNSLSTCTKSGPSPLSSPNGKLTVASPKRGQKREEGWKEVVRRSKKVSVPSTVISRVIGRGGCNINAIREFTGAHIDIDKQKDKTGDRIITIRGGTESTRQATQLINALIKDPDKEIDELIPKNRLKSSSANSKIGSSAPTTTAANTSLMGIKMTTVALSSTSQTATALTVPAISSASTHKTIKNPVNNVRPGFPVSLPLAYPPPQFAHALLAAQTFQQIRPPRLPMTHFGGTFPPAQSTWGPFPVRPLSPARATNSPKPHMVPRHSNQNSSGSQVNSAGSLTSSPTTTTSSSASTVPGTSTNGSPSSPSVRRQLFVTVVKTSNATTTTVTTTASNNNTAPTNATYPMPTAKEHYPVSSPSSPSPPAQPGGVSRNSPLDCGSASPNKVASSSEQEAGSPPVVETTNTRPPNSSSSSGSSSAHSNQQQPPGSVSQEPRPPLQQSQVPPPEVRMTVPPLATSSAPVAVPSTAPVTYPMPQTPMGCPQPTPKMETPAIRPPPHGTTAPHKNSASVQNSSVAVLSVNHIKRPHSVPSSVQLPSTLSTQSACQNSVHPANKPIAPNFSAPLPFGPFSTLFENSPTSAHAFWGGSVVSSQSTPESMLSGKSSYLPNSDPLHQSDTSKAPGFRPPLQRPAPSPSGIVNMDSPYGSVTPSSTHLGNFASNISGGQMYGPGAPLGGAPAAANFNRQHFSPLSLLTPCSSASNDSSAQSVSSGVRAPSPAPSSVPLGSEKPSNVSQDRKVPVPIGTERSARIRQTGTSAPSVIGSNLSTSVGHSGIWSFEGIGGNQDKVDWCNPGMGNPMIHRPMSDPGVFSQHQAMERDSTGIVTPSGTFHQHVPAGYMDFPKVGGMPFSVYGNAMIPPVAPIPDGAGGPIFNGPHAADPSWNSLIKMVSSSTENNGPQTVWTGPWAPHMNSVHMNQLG
UniProt O43747: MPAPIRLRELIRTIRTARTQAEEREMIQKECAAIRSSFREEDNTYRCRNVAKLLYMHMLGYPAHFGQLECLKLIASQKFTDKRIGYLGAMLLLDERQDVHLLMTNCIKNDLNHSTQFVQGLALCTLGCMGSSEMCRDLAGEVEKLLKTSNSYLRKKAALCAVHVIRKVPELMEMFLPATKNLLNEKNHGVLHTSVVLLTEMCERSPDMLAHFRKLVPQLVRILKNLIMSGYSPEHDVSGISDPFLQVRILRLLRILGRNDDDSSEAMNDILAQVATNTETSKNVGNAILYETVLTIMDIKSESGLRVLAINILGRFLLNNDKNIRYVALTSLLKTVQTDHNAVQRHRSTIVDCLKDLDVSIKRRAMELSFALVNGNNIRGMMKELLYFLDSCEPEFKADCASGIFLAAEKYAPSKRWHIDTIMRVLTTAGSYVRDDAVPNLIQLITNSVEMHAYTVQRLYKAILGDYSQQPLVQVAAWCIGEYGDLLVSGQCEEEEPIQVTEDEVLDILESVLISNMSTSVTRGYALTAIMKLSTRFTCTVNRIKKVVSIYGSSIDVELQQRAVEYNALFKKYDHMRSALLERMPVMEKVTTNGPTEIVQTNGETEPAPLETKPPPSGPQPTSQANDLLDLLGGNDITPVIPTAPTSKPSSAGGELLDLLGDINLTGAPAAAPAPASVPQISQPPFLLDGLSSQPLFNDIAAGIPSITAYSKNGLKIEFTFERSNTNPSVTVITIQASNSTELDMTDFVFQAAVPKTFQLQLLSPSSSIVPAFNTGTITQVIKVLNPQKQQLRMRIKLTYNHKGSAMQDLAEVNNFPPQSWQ
UniProt P20073: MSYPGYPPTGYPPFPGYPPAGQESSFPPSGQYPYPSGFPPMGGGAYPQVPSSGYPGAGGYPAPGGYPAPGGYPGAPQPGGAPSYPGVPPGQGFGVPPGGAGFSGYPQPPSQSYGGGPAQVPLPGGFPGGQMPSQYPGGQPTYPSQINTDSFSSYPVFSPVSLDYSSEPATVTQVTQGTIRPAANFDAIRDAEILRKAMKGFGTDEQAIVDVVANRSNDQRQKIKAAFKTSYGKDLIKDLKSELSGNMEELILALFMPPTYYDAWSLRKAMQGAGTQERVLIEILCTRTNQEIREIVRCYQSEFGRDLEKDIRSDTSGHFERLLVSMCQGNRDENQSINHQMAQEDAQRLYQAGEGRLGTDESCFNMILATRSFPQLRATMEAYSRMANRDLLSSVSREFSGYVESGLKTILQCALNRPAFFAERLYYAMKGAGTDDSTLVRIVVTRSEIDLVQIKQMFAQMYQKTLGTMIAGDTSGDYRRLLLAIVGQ
UniProt Q9NUS5: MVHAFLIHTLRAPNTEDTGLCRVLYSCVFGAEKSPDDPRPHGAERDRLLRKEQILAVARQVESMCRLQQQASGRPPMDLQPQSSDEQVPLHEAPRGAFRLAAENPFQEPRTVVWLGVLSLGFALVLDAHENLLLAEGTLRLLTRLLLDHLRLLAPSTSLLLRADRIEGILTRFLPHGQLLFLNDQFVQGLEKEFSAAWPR
UniProt P09525: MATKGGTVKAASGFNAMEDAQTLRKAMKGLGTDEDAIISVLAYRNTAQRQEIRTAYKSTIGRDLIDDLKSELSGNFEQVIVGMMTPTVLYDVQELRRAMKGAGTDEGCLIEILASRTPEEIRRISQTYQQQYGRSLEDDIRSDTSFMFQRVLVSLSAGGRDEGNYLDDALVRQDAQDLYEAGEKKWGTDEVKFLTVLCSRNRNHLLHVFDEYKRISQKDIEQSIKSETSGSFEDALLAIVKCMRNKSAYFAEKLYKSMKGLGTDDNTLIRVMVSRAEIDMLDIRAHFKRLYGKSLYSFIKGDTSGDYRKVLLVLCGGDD
UniProt Q5TZF3: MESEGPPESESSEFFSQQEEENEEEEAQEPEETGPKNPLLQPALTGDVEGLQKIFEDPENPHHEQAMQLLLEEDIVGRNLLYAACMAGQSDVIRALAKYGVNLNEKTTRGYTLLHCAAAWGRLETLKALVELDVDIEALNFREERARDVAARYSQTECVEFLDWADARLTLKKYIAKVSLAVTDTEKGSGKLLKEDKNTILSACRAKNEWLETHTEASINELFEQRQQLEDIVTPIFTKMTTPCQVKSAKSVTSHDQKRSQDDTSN
UniProt Q86W74: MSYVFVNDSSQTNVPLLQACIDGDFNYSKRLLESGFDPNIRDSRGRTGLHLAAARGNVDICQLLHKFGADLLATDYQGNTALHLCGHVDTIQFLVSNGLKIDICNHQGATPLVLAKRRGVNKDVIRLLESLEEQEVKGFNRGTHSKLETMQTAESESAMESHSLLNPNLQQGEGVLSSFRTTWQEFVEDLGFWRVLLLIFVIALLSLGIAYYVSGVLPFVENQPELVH
UniProt P27695, whole entry, looked up: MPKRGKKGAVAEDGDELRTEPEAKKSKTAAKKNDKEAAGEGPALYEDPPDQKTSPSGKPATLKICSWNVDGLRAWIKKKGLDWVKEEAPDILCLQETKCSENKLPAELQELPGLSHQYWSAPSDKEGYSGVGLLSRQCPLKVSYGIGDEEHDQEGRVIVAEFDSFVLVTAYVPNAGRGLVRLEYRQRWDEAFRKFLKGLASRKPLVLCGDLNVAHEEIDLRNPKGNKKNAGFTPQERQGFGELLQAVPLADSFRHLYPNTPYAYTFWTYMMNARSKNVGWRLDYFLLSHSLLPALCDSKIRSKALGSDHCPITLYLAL

Compound: CC1Cc2ccccc2N1C(=O)C1CCCN(C1)C(=O)CCl (mixture of isomers) [TRIM25 ligand 11 (diastereomer mixture)]
Experiment: probe-labelled cysteine peptide fold change vs DMSO (competition) (log2 fold change); higher = less target engagement (more negative = stronger competition)
Settings: THP-1, incubation time: 4 h
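Further: competitive chemoproteomic profiling in live THP-1 cells with an iodoacetamide desthiobiotin (IA-DTB) probe, comparing probe-labelled peptide intensities in compound-treated cells against DMSO-treated controls.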

Target | probe-labelled cysteine peptide fold change (10 µM) | probe-labelled cysteine peptide fold change (50 µM)
AP2B1_P63010_129_CLKDEDPYVR (UniProt P63010) | -0.189 | -0.166
ANKRD17_O75179_644_AGHVCTVQFLISK (UniProt O75179) | -0.0225 | -0.0531
ANKHD1_Q8IWZ3_643_ATANNDHTVVSLACAGGHLAVVELLLAHGADPTHR (UniProt Q8IWZ3) | 0.00811 | 0.121
AP1G1_O43747_70_LLYMHMLGYPAHFGQLECLK (UniProt O43747) | -0.0739 | 0.0302
ANXA7_P20073_363_LGTDESCFNMILATR (UniProt P20073) | 0.041 | 0.0488
AP5S1_Q9NUS5_27_VLYSCVFGAEK (UniProt Q9NUS5) | -0.107 | -0.0101
ANKLE2_Q86XL3_674_CSAFPLEQEADLIEAAEPGGPHSSR (UniProt Q86XL3) | -0.0438 | -0.165
AP1G1_O43747_353_STIVDCLK (UniProt O43747) | -0.0109 | 0.0363
ANKFY1_Q9P2R3_724_HGCDATCWGPGPGGCLQTLLHR (UniProt Q9P2R3) | -0.0309 | 0.0578
AP1G1_O43747_106_QDVHLLMTNCIK (UniProt O43747) | 0.246 | 0.287
AP2B1_P63010_391_CVSTLLDLIQTK (UniProt P63010) | 0.102 | 0.275
AP3D1_O14617_39_YISQCIDEIKQELK (UniProt O14617) | -0.00769 | 0.0314
ANKRD44_Q8N8A2_704_EANVDTVDILGCTALHR (UniProt Q8N8A2) | 0.0909 | -0.0747
ANXA4_P09525_315_VLLVLCGGDD (UniProt P09525) | 0.177 | 0.081
ANKRD45_Q5TZF3_116_GYTLLHCAAAWGR (UniProt Q5TZF3) | -0.147 | 0.0731
ANKRD46_Q86W74_61_GNVDICQLLHK (UniProt Q86W74) | -0.0151 | 0.00667
APEX1_P27695_93_GLDWVKEEAPDILCLQETK (UniProt P27695) | -0.447 | -0.455
APAF1_O14727_662_AHEDEVLCCAFSTDDR (UniProt O14727) | 0.117 | 0.215
ANKRD17_O75179_1260_NTALTLACFQGR (UniProt O75179) | -0.0141 | 0.0193

Random excerpt: two records from the list
Target | probe-labelled cysteine peptide fold change (10 µM) | probe-labelled cysteine peptide fold change (50 µM)
ANKHD1_Q8IWZ3_643_ATANNDHTVVSLACAGGHLAVVELLLAHGADPTHR (UniProt Q8IWZ3) | 0.00811 | 0.121
ANXA4_P09525_315_VLLVLCGGDD (UniProt P09525) | 0.177 | 0.081
